Assay results taken from article PMC12077163.
These are yes or no findings as the source states them, for the method shown. Some results given as binding are weak or reduced against the parent protein; the word gives no strength.

Amino acid sequences for entries named in this document (tags omitted).
UniProt C8VTS4: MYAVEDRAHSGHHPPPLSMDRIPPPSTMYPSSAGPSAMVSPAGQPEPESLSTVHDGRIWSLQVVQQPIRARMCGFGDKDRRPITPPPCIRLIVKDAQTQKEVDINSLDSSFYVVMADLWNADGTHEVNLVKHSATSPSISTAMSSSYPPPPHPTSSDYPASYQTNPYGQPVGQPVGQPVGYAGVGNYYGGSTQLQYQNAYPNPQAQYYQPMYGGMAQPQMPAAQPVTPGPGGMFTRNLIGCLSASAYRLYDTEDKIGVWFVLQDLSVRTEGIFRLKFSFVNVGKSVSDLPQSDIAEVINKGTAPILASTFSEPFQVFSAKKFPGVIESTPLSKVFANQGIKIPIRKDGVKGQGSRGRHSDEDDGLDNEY

Tests used:
Test in all cases: two-hybrid; Gal4 AD and BD fusions co-expressed in S. cerevisiae AH109; 10-fold serial dilutions spotted on SC-Leu-Trp-His plates, 30°C; growth through the HIS3 reporter
[1] = biological target: T1, Aspergillus nidulans VosA residues 1-190 (Aspergillus nidulans) (UniProt Q5BBX1)
T1 sequence: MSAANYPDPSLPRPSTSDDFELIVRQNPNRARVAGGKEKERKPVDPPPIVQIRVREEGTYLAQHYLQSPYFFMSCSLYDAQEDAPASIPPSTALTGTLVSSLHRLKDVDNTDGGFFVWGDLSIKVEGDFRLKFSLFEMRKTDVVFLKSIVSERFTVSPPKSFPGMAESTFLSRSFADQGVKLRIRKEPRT

[2] = biological target: T2, Aspergillus nidulans VeA residues 1-200 (Aspergillus nidulans) (UniProt C8VTV4)
T2 sequence: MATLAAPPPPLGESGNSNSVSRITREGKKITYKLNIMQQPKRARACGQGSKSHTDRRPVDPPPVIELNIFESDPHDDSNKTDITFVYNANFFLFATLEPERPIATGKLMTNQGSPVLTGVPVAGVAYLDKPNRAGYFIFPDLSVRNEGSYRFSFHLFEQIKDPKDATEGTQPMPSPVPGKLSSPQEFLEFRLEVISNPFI

[3] = biological target: Aspergillus nidulans VelB (velvet-like B), wild type, full length (Aspergillus nidulans) (UniProt C8VTS4)

Measured: binding

Aspergillus nidulans VelB (velvet-like B), wild type, full length (from UniProt C8VTS4 1-369)
binds: all assays above
